Experimental data taken from the supplement of paper PMC9254222.
Structures can show the parent of a compound that is named as a salt. The full ranking holds about 1,100 compounds; the median of “Renilla luciferase signal (cell health) relative to plate median” is about 0.97, and the highest 2% start at about 1.6. This is a selection; strong and weak results do not stand in their true shares.

Tested on: HEK293T (UBE3A T485A transfected, BAR Wnt reporter)
Test: Renilla luciferase signal (cell health) relative to plate median (fold (linear ratio)); higher = higher Renilla signal
Conditions: 24 h
Method in brief: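 Chemicals were robotically dosed at 0.01–100 uM for 24 h onto HEK293T cells, starting four hours after transfection with a BAR firefly luciferase Wnt reporter, TK-Renilla and an expression plasmid. The cells had been plated at 4500 cells/well in DMEM with 10% FBS at 37°C and 5% CO2. Following a Dual-Glo luciferase readout, the firefly/Renilla ratio served as the Wnt activity measure and raw Renilla as the cell health measure, both median-centred on each plate. Each value is the mean of four biological replicates.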

| SMILES | Renilla luciferase signal (concentration: 0.1 uM) | Renilla luciferase signal (concentration: 1 uM) | Renilla luciferase signal (concentration: 10 uM) | Renilla luciferase signal (concentration: 100 uM) | Renilla luciferase signal (concentration: 0.01 uM) |
| --- | --- | --- | --- | --- | --- |
| CCCCC(CC)COC(=O)CC(C(=O)OCC(CC)CCCC)S(=O)(=O)[O-].[Na+] (stereo not drawn) [Docusate sodium] | 1.03 | 1.01 | 0.965 | 0.621 | – |
| CC/C(=C(/CC)c1ccc(O)cc1)c1ccc(O)cc1 [Diethylstilbestrol] | 0.927 | 1.08 | 0.865 | 0.111 | – |
| CCCCCCCC=O [Octanal] | 1.05 | 0.988 | 1.03 | 1.28 | – |
| CN(C)C(=O)NC1(c2ccccc2)CCN(CCC[C@@]2(c3ccc(Cl)c(Cl)c3)CCCN(C(=O)c3ccccc3)C2)CC1 | 0.809 | 0.927 | 0.892 | 0.0287 | – |
| O=C1CN(N=Cc2ccc([N+](=O)[O-])o2)C(=O)N1 [Nitrofurantoin] | – | – | 1.69 | – | – |
| CCCCCCCCCCCCCCCCO [1-Hexadecanol] | 0.784 | 0.97 | 0.954 | 1.45 | – |
| Cc1cn([C@H]2C=C[C@@H](CO)O2)c(=O)[nH]c1=O [Stavudine] | 0.957 | 1.07 | 0.973 | 0.903 | – |
| CC[C@@H]1C[C@H](N(Cc2cc(C(F)(F)F)cc(C(F)(F)F)c2)C(C)=O)c2cc(C(F)(F)F)ccc2N1C(=O)OC(C)C | 0.773 | 0.801 | 0.678 | 0.813 | – |
| CC[C@H]1CC[C@H](NCc2cc3c(cc2OC)[C@H]2C[C@H]2C(=O)N3C)[C@H](c2ccccc2)N1 | 0.925 | 0.69 | 0.042 | 0.0275 | – |
| Cc1cccc2ccccc12 [1-Methylnaphthalene] | 0.734 | 0.803 | 0.61 | 0.88 | – |
| CCCCCCCCO [1-Octanol] | 0.95 | 1.08 | 1.12 | 1.23 | – |
| C[Si]1(C)O[Si](C)(C)O[Si](C)(C)O[Si](C)(C)O1 [Octamethylcyclotetrasiloxane] | 0.729 | 0.874 | 0.856 | 0.947 | – |
| NC(=O)NO [Hydroxyurea] | 0.943 | 0.888 | 0.86 | 1.3 | – |
| CC1=C(/C=C/C(C)=C/C=C/C(C)=C/CO)C(C)(C)CCC1 [Retinol] | 1.14 | 1.31 | 0.988 | 0.0618 | – |
| OC[C@H]1O[C@@H]2O[C@H]3[C@H](O)[C@@H](O)[C@@H](O[C@H]4[C@H](O)[C@@H](O)[C@@H](O[C@H]5[C@H](O)[C@@H](O)[C@@H](O[C@H]6[C@H](O)[C@@H](O)[C@@H](O[C@H]7[C@H](O)[C@@H](O)[C@@H](O[C@H]1[C@H](O)[C@H]2O)O[C@@H]7CO)O[C@@H]6CO)O[C@@H]5CO)O[C@@H]4CO)O[C@@H]3CO [alpha-Cyclodextrin] | – | – | – | 1.77 | – |
| CC/C(=C(\c1ccccc1)c1ccc(OCCN(C)C)cc1)c1ccccc1.O=C(O)CC(O)(CC(=O)O)C(=O)O [Tamoxifen citrate] | 0.921 | 1.04 | 1.01 | 0.913 | – |
| CS(=O)(=O)O.Cc1nccn1-c1ccc(Sc2cccc(C3(C(N)=O)CCOCC3)c2)cc1 | 0.91 | 0.739 | 0.251 | 0.24 | – |
| O=C(N[C@@H](Cc1ccccc1)[C@@H](O)C(=O)N1C[C@@H](O)[C@@H](O)C1)c1cc2cc(Cl)ccc2[nH]1 [Ingliforib] | 0.797 | 0.711 | 0.851 | 0.148 | – |
| CC[C@]1(O)C[C@H]2C[N@](CCc3c([nH]c4ccccc34)[C@@](C(=O)OC)(c3cc4c(cc3OC)N(C=O)[C@H]3[C@@](O)(C(=O)OC)[C@H](OC(C)=O)[C@]5(CC)C=CCN6CC[C@]43[C@@H]65)C2)C1 [Vincristine] | 0.0414 | 0.0347 | 0.0574 | 0.00391 | 0.0549 |
| S=C([S-])NCCNC(=S)[S-].[Mn+2] [Maneb] | 1.01 | 0.995 | 0.968 | 0.105 | 0.874 |
| Cc1ccc(C)c(C)c1 [1,2,4-Trimethylbenzene] | 1.07 | 1.03 | 1.06 | 1.14 | – |
| CCCCCCOC(=O)CC(CC(=O)OCCCCCC)(OC(=O)CCC)C(=O)OCCCCCC [Butyryl trihexyl citrate] | 0.879 | 0.854 | 1.08 | 1.59 | – |
| CC(C)NCC(O)c1ccc(O)c(O)c1.Cl (stereo not drawn) [Isoproterenol hydrochloride] | 0.796 | 0.791 | 0.784 | 0.483 | – |
| COC(=O)CSc1cc(/N=c2\sc(=O)n3n2CCCC3)c(F)cc1Cl [Fluthiacet-methyl] | 0.995 | 1.1 | 1 | 1.21 | 1.03 |
| CCc1cc(C2=C(C(=O)[O-])N(c3ccccc3C(F)(F)F)S(=O)(=O)c3ccccc32)cc2c1OCO2.[K+] [Fandosentan potassium salt] | 1.01 | 1.1 | 0.887 | 0.331 | – |
| CCCCOC(=O)CCCCC(=O)OCCCC [Dibutyl hexanedioate] | 1.09 | 1.25 | 1.23 | 1.33 | – |
| CCCCC(CC)C(=O)O (stereo not drawn) [2-Ethylhexanoic acid] | 0.941 | 0.932 | 0.953 | 1.5 | – |

Some of the entries so far, as comma-separated lines:
SMILES,Renilla luciferase signal (concentration: 0.1 uM),Renilla luciferase signal (concentration: 1 uM),Renilla luciferase signal (concentration: 10 uM),Renilla luciferase signal (concentration: 100 uM),Renilla luciferase signal (concentration: 0.01 uM)
CC[C@]1(O)C[C@H]2C[N@](CCc3c([nH]c4ccccc34)[C@@](C(=O)OC)(c3cc4c(cc3OC)N(C=O)[C@H]3[C@@](O)(C(=O)OC)[C@H](OC(C)=O)[C@]5(CC)C=CCN6CC[C@]43[C@@H]65)C2)C1 [Vincristine],0.0414,0.0347,0.0574,0.00391,0.0549
S=C([S-])NCCNC(=S)[S-].[Mn+2] [Maneb],1.01,0.995,0.968,0.105,0.874

(list continues)

| SMILES | Renilla luciferase signal (concentration: 0.1 uM) | Renilla luciferase signal (concentration: 1 uM) | Renilla luciferase signal (concentration: 10 uM) | Renilla luciferase signal (concentration: 100 uM) | Renilla luciferase signal (concentration: 0.01 uM) |
| --- | --- | --- | --- | --- | --- |
| CCCCCOC(=O)COc1cc(N2C(=O)C3=C(CCCC3)C2=O)c(F)cc1Cl [Flumiclorac-pentyl] | – | – | – | 1.62 | – |
| CCCN(C1CCN(C(=O)C2CCNCC2)CC1)[C@@H]1CCc2ccc(OC)cc2C1 | 1.08 | 1.1 | 1.01 | 0.0265 | – |
| c1ccc2c(c1)-c1cccc3c1c-2cc1ccccc13 [Benzo(b)fluoranthene] | 0.831 | 0.83 | 0.89 | 0.898 | – |
| NC(=O)N1c2ccccc2C=Cc2ccccc21 [Carbamazepine] | 1.08 | 1.07 | 1.04 | 0.628 | – |
| O=C(OC[C@H]1O[C@@H](OC(=O)c2cc(O)c(O)c(OC(=O)c3cc(O)c(O)c(O)c3)c2)[C@H](OC(=O)c2cc(O)c(O)c(OC(=O)c3cc(O)c(O)c(O)c3)c2)[C@@H](OC(=O)c2cc(O)c(O)c(OC(=O)c3cc(O)c(O)c(O)c3)c2)[C@@H]1OC(=O)c1cc(O)c(O)c(OC(=O)c2cc(O)c(O)c(O)c2)c1)c1cc(O)c(O)c(OC(=O)c2cc(O)c(O)c(O)c2)c1 [Tannic acid] | 1.11 | 1.02 | 0.8 | 0.0271 | – |
| CCOC(=O)c1ccc(O)cc1 [Ethylparaben] | 1.04 | 1.12 | 1 | 1 | – |
| CC(O)CC(C)(C)O (stereo not drawn) [2-Methyl-2,4-pentanediol] | 1.01 | 0.927 | 0.981 | 1.25 | – |
| CCCCCCCCCCCC[N+](C)(C)C.[Cl-] [Dodecyltrimethylammonium chloride] | 0.83 | 0.808 | 0.112 | 0.0199 | – |
| FC(F)(F)C(F)(F)C(F)(F)C(F)(F)C(F)(F)C(F)(F)CCI [1H,1H,2H,2H-Perfluorooctyl iodide] | 0.905 | 0.909 | 0.945 | 0.892 | – |
| C[C@]12C=CC(=O)C=C1CC[C@H]1[C@@H]3C[C@@H](O)[C@](O)(C(=O)CO)[C@@]3(C)C[C@H](O)[C@@]12F [Triamcinolone] | 0.961 | 0.933 | 0.933 | 1.33 | – |
| CCCC(=O)OCCC(C)C [Isopentyl butyrate] | 0.922 | 0.981 | 1.08 | 1.09 | – |
| CC(C)(C)c1cc(/C=C2\SC(=N)NC2=O)cc(C(C)(C)C)c1O.CS(=O)(=O)O [Darbufelone mesylate] | 0.798 | 0.869 | 0.484 | 0.0265 | – |
| CC(CO)OC(C)CO.CC(O)COCC(C)O (stereo not drawn) [Dipropylene glycol] | 1.05 | 1.21 | 1.3 | 1.23 | – |
| CCCCCc1ccc(N)cc1 [4-Pentylaniline] | 1.09 | 1.01 | 1.05 | 0.823 | – |
| CCOC(=O)CC(CC(=O)OCC)(OC(C)=O)C(=O)OCC [Acetyltriethyl citrate] | 0.793 | 0.812 | 0.872 | 1.04 | – |
| OCC(CO)(CO)CO [Pentaerythritol] | 0.898 | 1.02 | 1.08 | 2.01 | – |
| COc1cccc([C@H](O)C2CCN(CCc3ccc(F)cc3)CC2)c1OC [Volinanserin] | 1.05 | 0.919 | 0.909 | 0.112 | – |
| CCCCC(CC)COC(=O)CCCCCCCC(=O)OCC(CC)CCCC (stereo not drawn) [Bis(2-ethylhexyl) nonanedioate] | 1.12 | 1.13 | 1.08 | 1.31 | – |
| CCCCCCC(=O)OCC [Ethyl heptanoate] | 1.07 | 0.911 | 0.835 | 0.706 | – |
| CO[C@@H]1COCC[C@@H]1[NH2+][C@@H]1CC[C@@](C(=O)N2CCc3ncc(C(F)(F)F)cc3C2)(C(C)C)C1.O=C([O-])CCC(=O)O | 0.901 | 1.1 | 0.9 | 1.08 | – |
| C#C[C@]1(O)CC[C@H]2[C@@H]3CCC4=CC(=O)CC[C@@H]4[C@H]3CC[C@@]21CC [Norgestrel] | 1.24 | 1.1 | 1.06 | 0.926 | – |
| CCOc1ccc2c(c1)C(C)=CC(C)(C)N2 [Ethoxyquin] | 1 | 1.01 | 0.86 | 0.0339 | – |
| CCCOC(=O)c1ccc(C(=O)OCCC)nc1 [Dipropyl pyridine-2,5-dicarboxylate] | 0.979 | 0.98 | 0.888 | 1.2 | 1.25 |
| COc1ccc(S(=O)(=O)N2C(=O)[C@@](c3ccccc3OC)(N3C[C@H](O)C[C@H]3C(=O)N(C)C)c3cc(Cl)ccc32)c(OC)c1 [Nelivaptan] | 0.501 | 0.516 | 0.404 | 0.14 | – |
| CC(C)(C)c1cc(O)ccc1O [tert-Butylhydroquinone] | 0.651 | 0.859 | 0.989 | 0.227 | – |
| CCOC(=O)C(C)Oc1ccc(Oc2cnc3cc(Cl)ccc3n2)cc1 (stereo not drawn) [Quizalofop-ethyl] | 0.758 | 0.993 | 0.953 | 1.88 | 1.1 |
| CCCN(CCC)c1c([N+](=O)[O-])cc(C(F)(F)F)c(N)c1[N+](=O)[O-] [Prodiamine] | 0.702 | 0.892 | 0.843 | 0.67 | 0.707 |
